Measurements reported in US20070264646A1, “Hbv Particles Containing Hbv-Rna” (Advanced Life Science Institute, Inc., priority 2003, published 2007).
At least one compound was matched to its structure with a doubt left.

Tested on: HBV-DNA in the serum
Assay: Quantification of HBV-DNA in the serum by TaqMan PCR, patient under lamivudine treatment
Assay type: in vivo
Procedure: In order to isolate the HBV gene in Dane particles (the infective HBV particle: the complete HBV particle), the HBV gene in a serum from a HBV patient was purified using High Pure Viral Nucleic Acid kit (Roche Diagnostics) in the following method. One hundred μl of the serum from a HBV patient who received lamivudine treatment was mixed with 100 μl of the serum from a normal healthy subject to prepare 200 μl of a serum sample. To the serum sample, 200 μl of a working solution {50 μl of poly(A) carrier RNA (4 mg/ml) and 2.5 ml of the binding buffer [6 M guanidine-HCl, 10 mM urea, 10 mM Tris-HCl (pH 4.4), 20% Triton X-100 (v/v)]} and 50 μl of Proteinase K (18 mg/ml) were added and mixed, and incubated at 72° C. for 10 minutes.
One hundred μl of isopropanol and the sample were mixed, and the mixture was transferred into a High Pure filter tube. […]
The quantification of HBV-DNA in the serum was performed by the TaqMan PCR method that employs the Light Cycler (Roche Diagnostics). […]
The condition included pretreatment at 95° C. for 10 minutes, DNA denaturation at 95° C. for 5 seconds, annealing at 60° C. for 15 seconds and DNA synthesis at 72° C. for 8 seconds, and fluorescence emitted from the TaqMan probe was measured to quantify the amount of HBV-DNA in the serum (Table 1).

Nc1ccn([C@@H]2CS[C@H](CO)O2)c(=O)n1 [lamivudine]
HBV-DNA in the blood (samples after 8 months and after 19 months of administration): practically undetectable
HBV-DNA in the patient serum (serum of patients that received lamivudine treatment): completely eliminate HBV-DNA
